According to article PMC11128410:
These are yes or no findings as the source states them, for the method shown. Binding seen in cells or lysates may run through a third protein. Some binding calls cover weakened binding; strength is not graded here.

Protein sequences, listed by entry. Tags and fused reporters are not part of them.
UniProt O94762: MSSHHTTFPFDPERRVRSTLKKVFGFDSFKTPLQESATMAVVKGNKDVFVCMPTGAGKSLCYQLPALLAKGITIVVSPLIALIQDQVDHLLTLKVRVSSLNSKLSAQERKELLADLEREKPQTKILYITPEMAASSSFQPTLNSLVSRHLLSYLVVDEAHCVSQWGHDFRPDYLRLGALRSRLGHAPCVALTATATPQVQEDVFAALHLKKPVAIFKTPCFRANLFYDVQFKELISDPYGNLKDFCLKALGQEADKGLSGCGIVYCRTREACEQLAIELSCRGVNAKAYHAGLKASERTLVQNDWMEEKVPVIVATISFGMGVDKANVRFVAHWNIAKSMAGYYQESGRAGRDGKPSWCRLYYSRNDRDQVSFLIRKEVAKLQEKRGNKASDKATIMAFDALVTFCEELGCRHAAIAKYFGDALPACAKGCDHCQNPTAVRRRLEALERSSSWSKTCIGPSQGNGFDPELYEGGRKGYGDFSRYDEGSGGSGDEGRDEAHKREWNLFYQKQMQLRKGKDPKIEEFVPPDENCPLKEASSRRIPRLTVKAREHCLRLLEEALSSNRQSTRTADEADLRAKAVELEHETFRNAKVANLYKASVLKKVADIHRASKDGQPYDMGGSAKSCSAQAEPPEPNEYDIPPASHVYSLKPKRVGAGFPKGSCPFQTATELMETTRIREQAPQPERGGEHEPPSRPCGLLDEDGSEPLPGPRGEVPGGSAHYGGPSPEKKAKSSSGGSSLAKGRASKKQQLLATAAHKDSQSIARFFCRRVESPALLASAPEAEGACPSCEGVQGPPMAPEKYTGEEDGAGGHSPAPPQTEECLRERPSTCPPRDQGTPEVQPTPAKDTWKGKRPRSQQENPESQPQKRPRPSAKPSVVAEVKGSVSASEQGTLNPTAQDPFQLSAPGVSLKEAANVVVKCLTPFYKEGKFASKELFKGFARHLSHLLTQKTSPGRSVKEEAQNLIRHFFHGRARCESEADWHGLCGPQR
UniProt P04050: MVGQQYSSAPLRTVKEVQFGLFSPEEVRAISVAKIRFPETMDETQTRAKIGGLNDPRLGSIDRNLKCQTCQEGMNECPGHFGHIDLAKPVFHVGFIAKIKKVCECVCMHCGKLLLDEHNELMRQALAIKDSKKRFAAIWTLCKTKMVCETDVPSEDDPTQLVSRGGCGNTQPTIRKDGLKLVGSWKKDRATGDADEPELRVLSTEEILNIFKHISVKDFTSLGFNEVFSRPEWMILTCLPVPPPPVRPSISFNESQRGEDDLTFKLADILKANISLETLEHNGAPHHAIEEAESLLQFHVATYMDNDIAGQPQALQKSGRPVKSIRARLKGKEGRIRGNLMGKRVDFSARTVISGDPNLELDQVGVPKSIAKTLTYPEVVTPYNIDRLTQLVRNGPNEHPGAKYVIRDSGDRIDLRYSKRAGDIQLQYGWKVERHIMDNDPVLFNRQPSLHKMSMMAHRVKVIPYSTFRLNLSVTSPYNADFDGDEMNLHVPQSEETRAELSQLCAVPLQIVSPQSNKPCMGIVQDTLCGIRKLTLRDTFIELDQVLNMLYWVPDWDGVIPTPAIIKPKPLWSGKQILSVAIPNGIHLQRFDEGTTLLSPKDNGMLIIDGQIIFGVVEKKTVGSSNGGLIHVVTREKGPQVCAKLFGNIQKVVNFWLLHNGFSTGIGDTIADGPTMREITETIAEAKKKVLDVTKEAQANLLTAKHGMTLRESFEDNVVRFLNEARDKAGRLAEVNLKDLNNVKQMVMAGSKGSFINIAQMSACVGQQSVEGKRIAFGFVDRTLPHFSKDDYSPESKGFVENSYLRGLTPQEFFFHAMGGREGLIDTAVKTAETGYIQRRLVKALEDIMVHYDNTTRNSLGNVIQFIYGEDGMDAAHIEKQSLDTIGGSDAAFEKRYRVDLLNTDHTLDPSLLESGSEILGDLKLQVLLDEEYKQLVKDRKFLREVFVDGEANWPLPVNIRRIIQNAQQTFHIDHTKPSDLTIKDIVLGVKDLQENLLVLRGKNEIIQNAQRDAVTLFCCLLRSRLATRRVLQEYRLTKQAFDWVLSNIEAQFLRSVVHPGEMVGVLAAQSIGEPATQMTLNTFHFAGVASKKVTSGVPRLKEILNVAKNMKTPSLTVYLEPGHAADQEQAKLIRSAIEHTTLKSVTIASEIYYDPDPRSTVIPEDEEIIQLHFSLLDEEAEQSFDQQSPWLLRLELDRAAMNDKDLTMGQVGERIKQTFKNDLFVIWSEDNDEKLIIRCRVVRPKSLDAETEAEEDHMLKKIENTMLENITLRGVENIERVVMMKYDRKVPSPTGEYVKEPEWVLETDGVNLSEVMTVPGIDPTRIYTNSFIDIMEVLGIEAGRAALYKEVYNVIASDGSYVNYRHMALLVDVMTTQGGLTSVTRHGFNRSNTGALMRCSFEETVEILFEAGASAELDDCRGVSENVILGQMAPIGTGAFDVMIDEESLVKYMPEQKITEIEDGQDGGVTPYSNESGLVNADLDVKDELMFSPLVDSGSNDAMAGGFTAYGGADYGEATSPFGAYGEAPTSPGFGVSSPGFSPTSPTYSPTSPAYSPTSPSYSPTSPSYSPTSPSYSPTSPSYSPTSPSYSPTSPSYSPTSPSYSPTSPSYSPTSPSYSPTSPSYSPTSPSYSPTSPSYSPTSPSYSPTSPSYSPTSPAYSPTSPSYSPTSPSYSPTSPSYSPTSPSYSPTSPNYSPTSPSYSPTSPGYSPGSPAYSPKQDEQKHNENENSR

Columns and labels:
[1] = target: human RECQL5, wild type, FLAG-tagged (GAL::RECQL5) (human) (UniProt O94762); test: co-IP; whole cell extracts of yeast expressing FLAG-tagged RECQL5 constructs from the GAL1 promoter (galactose 4 h); precipitation with FLAG antibody on Dynabeads Protein A, 3 h at 4 °C; lysis buffer 50 mM Tris HCl pH 7.5, 100 mM NaCl, 1.5 mM MgCl2, NP40, DTT; blot for Rpb1
[2] = target: Rpb1 subunit of yeast RNA polymerase II (S. cerevisiae (endogenous in yeast cells)) (UniProt P04050); test: co-IP; whole cell extracts of yeast expressing FLAG-tagged RECQL5 constructs from the GAL1 promoter (galactose 4 h); precipitation with anti-Rpb1 (8WG16); blot for FLAG

binding [1]	binding [2]	Substance
binds		Rpb1 subunit of yeast RNA polymerase II (from UniProt P04050 1-1733)
	binds	human RECQL5, wild type, FLAG-tagged (GAL::RECQL5) (from UniProt O94762 1-991) (enzyme)
